The values below come from a protein production outcome set (Wang et al. 2014).

A short description of this data set: label from the status in PepcDB records.
Consider “MSSDRDGIRGGWATPGDDQPDAESSVETTGEFTIDYAPPAWYTQNASGDGGQGESEGADPPGGSAGSPPASAPTAPPAPRGPVPPLPGLTPPPHATHHGPSYVPAPAPGAPFTPPPPAPAPGAAFTPPPPPGPGAPFTPPAPPSGGPAGVPKLPVGSGFEPQPSPSQRSAPPEPEPEPEVRTPEPEPKAVAEPAPAADLASPAALPSFPAGGFQLQAPVPPPPAEEPGAAAEPEPEPDREPDTGDLDNGDLESGATMRFSAVALKREIAERAAAEDTAGEGPAAGADEARDTPDEPFVSTGFTDADTDAETDVDTESDFESVSDQAPDAESGGGHGDVADPRLGGSAPDAEPEPEPESEPVVLAAVAESESESAERVGDEPEDSVPTADVPVDAVPDDAAPPADSVPQDAVPQDATPPAPEGMPPLPPSYPPVAPAAAHQWPAQPQPPTQPQTAPAPPEQPGVAAQQPPFQPQAPQPAPAGWDAPPAPQPGYGFPQPGAQAPQPQPHSPAQPPGGYGFPQAPQAPHGPSPQQQPYPGVPQQQAPQAQGGGQAPPAQPGQPAQPGQPMQPGQPGQSGQPGQAPSAPQAAPHPPQAPPAQQPEYQPQAQQPQPQPQPQPYQQPADPRLGAAWPQPMQHDQRQATNPGAAPLGYTAAVELSSDRLVNNKRQKAKSSRPAAGGSRFKLGGKKEEAERQRKLDLIRTPVLSCYRIAVISLKGGVGKTTTTTALGSTLATERQDKILAIDANPDAGTLGRRVRRETGATIRDLVQAIPYLNSYMDIRRFTSQASSGLEIIANDVDPAVSTTFNDEDYRRAIDVLGQQYPIILTDSGTGLLYSAMRGVLDLADQLIIISTPSVDGASSASTTLDWLSAHGYADLVSRSITVISGVRETGKMIKVDDIVGHFQTRCRGVVVVPFDEHLSAGAEVDLDMMRPKVREAYFNLAAMVAEDFVRHQQSHGLWTSDGNPPPVAAPPMPGQQTPGQQMPGQPMPGQPMPGQQMPPQQGQPMPPQPGQPVPGQPYPPQPAPGQQQPYPQPGYNQPYAQPGYGYPQPGQPGHPGQPQQQPQQQQQPQQGQTPPPPPPQQ”, for which the protein production entry is listed as “failed”.
For “MSYSTIISNTSFLSLASKFTTRGSRLQCTVSMARSAVDETSDSGAFQRTASTFRNFVSKDSNSQFPAESGRYHLYISYACPWASRCLSYLKIKGLDDAISFSSVKPIWGRTKETDEHMGWVFPGSDTEVPGADPDHLNGAKSVRELYEIASPNYTGKYTVPVLWDKKLKTVVNNESAEIIRMFNTEFNHIAGNPDLDLYPSHLQAKIDETNEWIYNGINNGVYRCGFAKKQGPYEEAVEQVYEALDRCEEILGKHRYICGNTLTETDIRLFVTLIRFDEVSSYFQSKKKKYTICERISNVETLIQVYAVHFKCNKKLIREYPNLFNYTKDIFQIPGMSSTVNMNHIKQHYYGSHPSINPFGIIPHGPNIDYTSPHDRHRFSK” the value was “failed”; for “MTDRLPVTVLSGFLGAGKSTLLNHILRNRDHLRVAVIVNDMSEINIDGSEVQRDVSLNRAEEKLVEMSNGCICCTLREDLLEEVGKLARDGRFDYLLIESTGISEPLPVAETFTFRDESGQSLADIARLDTMVTVVDGMNFLLDYQAAHSLASRGETLGEDDERSISDLLIEQVEFADVILVSKIDLISSDQRQELLAILKSLNAQAEIVPMVMGQVPLAKILDTGRFDFERAAQAPGWLRELRGEHVPETEEYGIASTAYRARRPFHPQRFFDFINRPWVNGKLLRSKGFFWLASKYQEAGSWSQAGGLMRHGFAGRWWRFVPKQHWPQDEEGTAAIMHNWTAATGDCRQELVFIGQNIDFTRLCAELDLCLLDDDEMALGVEGWSLLNDPFGPWHDEEAALEHHHHHH”, “not failed”.
To “MTPFSYHKPASISEAVSLADASSHFIAGGTNLVDLMKENVVRPKRLIDISGLGLNGIHPTLNGGLLIGALVSNADLAWHPMIEQHYPLLSDAILAGASPQLRNMASTGGNLLQRTRCYYFYDTGTPCNKREPGSGCPARTGSNRIHAILGASDACVATHPSDMCVALAALEAVVHVQGPRGERQIPFAAFHRLPEDTPERDNQLAIDELVVAIELPPPVFEKHYRYLKIRDRASYAFALVSVAAALSFDGQVIRQARLALGGVAHKPWRDPVVERMLAGQAPCEALFTRAAKTLLQGAKPLSHNGFKVTLAQRAIVRALDDAARGAADGGPRP” belongs “failed”; to “MTVPVGATIHVGDSFVPMAEVLAIDKEDGDLTSKIKVDGEVDTTKAGTYVLTYTVTDSKGHEVTAKQTVTVKVRLEHHHHHH”, “not failed”; to “MVFQAPGVEGQNQEAMGGRDSQTEICPHQVMKRVRTEQVQVAVSCYLKRRQYVDSEGPLKQGLRLSQTPEEMAANLTVQSESGCANAVSAAPCQAEPQQYEVQFGRLRNFLTDSDSQYSHEVMPLLYPLFVYLHLNLVQSGPKSTVESFYSRFHGMFLQNASQKDIIEQLQTTQTIQDILSNFQLRAFLDNKYVVRLQEDSYNYLIRYLQSDNNTALCKVLAVHIHLDVQPAKRTDYQLYASGGSSRSESSSLEPPDVPNPILQNEAALEVLQESIKRVKDGPPSLTTMCFYAFYNTEQLLNTAEISSDSKLLAPGFDNSWIKLWSLRSKKLKSEPHRVDTSRVRLACDTLEEEESEDDDVGTEMKILRGHCGPVYSTRFLADSSGLLSCSEDMSIRYWDLESFTNTVLYQGHAYPVWDVDISPYILYFASGSHDRTARLWSFDRTYPLRIYAGHLADVDCVKFHPNSNYLATGSTDKTVRLWSAQQGNSVRLFTGHRGPVLSLSFSPNGKYLASAGEDQWLKLWDLASGTLLKNXEATRTASPVWPLARTAVXLLLPPWRTLYASGTSEARAATHQLTALLGSLWACTLGRXATSXVYSSWPATSSXXLESHKRIKNI”, “failed”.
For “RINNVTVKELFEAIQDTVQGLRDDSEDEDDPLYADADAEIEARSRGEKLHRPQPRREKPRPAPERRRMSAPLVDDVDEDVVSRPLFDDPSTAQSQKSSVETQRAARDVSETDEFPAVDEPTVVVPRKPSAPRMSLPQTPVTDVEAAADVVAAGRKAVQDAVKARESHNVGAALAPSTPAQPYEAPESHYAVPSTQLLIPGKEAKTHSEANDRMIEAISDVFAEFKVDAHVTGFSRGPTVTRYEVELGPGVKVSKITNLQSNLAYAVATDNVRLLTPIPGKSAVGIEVPNTDREMVRLGDVLNSESVHSDHDPMLIGLGKDIEGDFVAHSVQKMPHLLVAGSTGSGKSAFVNSLLVSLLTRATPEDVRLILVDPKMVELTPYEGIPHLITPIITQPKKAAAALQWLVEEMEQRYMDMKSTRVRHIKDFNRKVKSGEIQAPLGSQREYHPYPYIVCVVDELADLMMTAPKEIEDSIVRITQKARAAGIHLVLATQRPSVDVVTGLIKTNVPSRLAFATSSLTDSRVILDQAGAEKLIGMGDGLFIPQGGRPQRIQGAFVTDEEIQAVVDAAKAQGEPNYTEGVTEDKAAEAKKDIDADIGNDLEDLLQAVELVVTAQLGSTSMLQRKLRIGFAKAGRLMDLMETRGIVGPSEGSKAREVLVKPEELETTLWMIKGAKPEDAPKEDDWQSADSGVSDASDPSHGERAAYNPSSNAF” the value was “failed”.
For the sequence “TITKVAVGSDESKWGLKALEIAAAFADSWGAELDVISAVPNMKGSEDEGVMASFQEDLDVRIKPLEAAYPSLKINKQIVPGPAAGALTKASYDHDVVVVGSRGRGGFTGLLLGSTSQGLLQHAVGPVYVVPRKYVEA”, the protein production entry is “failed”.
As to “TMASGAPSFPFSRASGPEPPAEFAKLRATNPVSQVKLFDGSLAWLVTKHKDVCFVATSEKLSKVRTRQGFPELSASGKQAAKAKPTFVDMDPPEHMHQRSMVEPTFTPEAVKNLQPYIQRTVDDLLEQMKQKGCANGPVDLVKEFALPVPSYIIYTLLGVPFNDLEYLTQQNAIRTNGSSTAREASAANQELLDYLAILVEQRLVEPKDDIISKLCTEQVKPGNIDKSDAVQIAFLLLVAGNATMVNMIALGVATLAQHPDQLAQLKANPSLAPQFVEELCRYHTASALAIKRTAKEDVMIGDKLVRANEGIIASNQSANRDEEVFENPDEFNMNRKWPPQDPLGFGFGDHRCIAEHLAKAELTTVFSTLYQKFPDLKVAVPLGKINYTPLNRDVGIVDLPVIF”, the protein production entry is “not failed”.
